Test results taken from patent US20150133411A1, “COMPOUNDS WITH TRPV4 ACTIVITY, COMPOSITIONS AND ASSOCIATED METHODS THEREOF” (The University of Utah Research Foundation, priority 2012, published 2015).
Some entries share one result that the patent states for a list of compounds.

Test system: MB model of glaucoma
Test: IOP time course after single eye drop in MB model of glaucoma
Type: in vivo, mouse
Description: Specifically, microbeads (MBs) were injected into the anterior chamber of a mouse eye as described in Example 2 with PBS-injected eyes used as controls. Compound 1 (10 mg/kg body weight) (or PBS vehicle) was injected intraperitoneally (IP). […] IOP was measured in mice between 10:00 AM and 1:00 PM with the TonoLab rebound tonometer (Colonial Medical Supply, Franconia, NH/Tyolat, Helsinki, Finland). Mice were sedated with IP injection of Avertin with final amount calculated by weight (e.g., 0.5 ml for 21-24 g animals). Animals were placed on a jack stand platform and the tonolab was clamped on a ring stand and centered onto the mid-cornea. During measurements animal were neither restrained nor touched. Each eye was measured twenty consecutive times, the highest and lowest values were discarded and the values were averaged.
FIG. 9 illustrates the short-term effects of a single dose of Compound 1 (eye drop) in the MB model of glaucoma. IOP was measured as described in Example 3 at the indicated time points after receiving a drop of Compound 1. Compound 1 reduced IOP beginning at 1 hour after dosing and continued through 6 hours after dosing.
FIG. 10 illustrates a time course of Compounds 1, 2, 5 and Compound 2-HCl as well as a positive control compound, timolol, with regard to inhibition of IOP. The experiment was conducted as described in Example 9. […]

## Cc1c(C(=O)Nc2cccc(C(F)(F)F)c2)c2ccccc2n1CCCN1CCOCC1 [Compound 5, N-(3-(trifluoromethyl)phenyl)-2-methyl-1-(3-morpholinopropyl)-1H-indole-3-carboxamide]
  time after dosing at which IOP reduction begins: ≤ 1 h
  time after dosing through which IOP reduction lasts: at least 6 hours
